Assay results from the supplement of paper PMC8728848.
This is one part of the list.

Key:
Assay in all cases: glycan array binding signal (z-score within array); higher = stronger binding
Conditions in all cases: glycan notation: IUPAC condensed, linker removed
[1] = target: Gal(b1-3)GalNAc(b1-3)Gal(a1-4)Gal(b1-4)Glc
Outline: (§1)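 From the Consortium for Functional Glycomics database, 3228 arrays were curated, keeping only those whose protein sequence was available. Binding is given as a within-array Z-score averaged across arrays sharing a protein sequence and across linkers. Negative Z-scores can be read as non-binding.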

[2] = target: Gal(b1-3)GalNAc(b1-4)Gal(b1-4)Glc
Outline: as §1

[3] = target: Gal(b1-3)GalNAc(b1-4)[Neu5Ac(a2-3)]Gal(b1-4)Glc
Outline: as §1

Gal(b1-3)GlcNAc = target: Gal(b1-3)GlcNAc
Outline: as §1

[4] = target: Gal(b1-3)GlcNAc(a1-3)Gal(b1-4)GlcNAc
Outline: as §1

[5] = target: Gal(b1-3)GlcNAc(a1-6)Gal(b1-4)GlcNAc
Outline: as §1

Gal(b1-3)GlcNAc(b1-2)Man = target: Gal(b1-3)GlcNAc(b1-2)Man
Outline: as §1

[6] = target: Gal(b1-3)GlcNAc(b1-2)Man(a1-3)[Gal(b1-3)GlcNAc(b1-2)Man(a1-6)]Man(b1-4)GlcNAc(b1-4)GlcNAc
Outline: as §1

[7] = target: Gal(b1-3)GlcNAc(b1-2)Man(a1-3)[Gal(b1-3)GlcNAc(b1-2)Man(a1-6)]Man(b1-4)GlcNAc(b1-4)[Fuc(a1-6)]GlcNAc
Outline: as §1

[8] = target: Gal(b1-3)GlcNAc(b1-2)Man(a1-3)[GlcNAc(b1-4)][Gal(b1-3)GlcNAc(b1-2)Man(a1-6)]Man(b1-4)GlcNAc(b1-4)GlcNAc
Outline: as §1

[9] = target: Gal(b1-3)GlcNAc(b1-2)[Gal(b1-3)GlcNAc(b1-6)]Man(a1-6)[Gal(b1-3)GlcNAc(b1-2)Man(a1-3)]Man(b1-4)GlcNAc(b1-4)GlcNAc
Outline: as §1

[10] = target: Gal(b1-3)GlcNAc(b1-3)Gal(b1-3)GlcNAc
Outline: as §1

[11] = target: Gal(b1-3)GlcNAc(b1-3)Gal(b1-4)Glc
Outline: as §1

[12] = target: Gal(b1-3)GlcNAc(b1-3)Gal(b1-4)GlcNAc
Outline: as §1

[13] = target: Gal(b1-3)GlcNAc(b1-3)Gal(b1-4)GlcNAc(b1-2)Man(a1-3)[Gal(b1-3)GlcNAc(b1-3)Gal(b1-4)GlcNAc(b1-2)Man(a1-6)]Man(b1-4)GlcNAc(b1-4)GlcNAc
Outline: as §1

[14] = target: Gal(b1-3)GlcNAc(b1-3)Gal(b1-4)GlcNAc(b1-2)[Gal(b1-3)GlcNAc(b1-3)Gal(b1-4)GlcNAc(b1-6)]Man(a1-6)[Gal(b1-3)GlcNAc(b1-3)Gal(b1-4)GlcNAc(b1-2)Man(a1-3)]Man(b1-4)GlcNAc(b1-4)[Fuc(a1-6)]GlcNAc
Outline: as §1

[15] = target: Gal(b1-3)GlcNAc(b1-3)Gal(b1-4)GlcNAc(b1-3)Gal(b1-4)GlcNAc(b1-2)[Gal(b1-3)GlcNAc(b1-3)Gal(b1-4)GlcNAc(b1-3)Gal(b1-4)GlcNAc(b1-6)]Man(a1-6)[Gal(b1-3)GlcNAc(b1-3)Gal(b1-4)GlcNAc(b1-3)Gal(b1-4)GlcNAc(b1-2)Man(a1-3)]Man(b1-4)GlcNAc(b1-4)[Fuc(a1-6)]GlcNAc
Outline: as §1

[16] = target: Gal(b1-3)GlcNAc(b1-3)Gal(b1-4)GlcNAc(b1-6)[Gal(b1-3)GlcNAc(b1-3)]Gal(b1-4)Glc
Outline: as §1

[17] = target: Gal(b1-3)GlcNAc(b1-3)Gal(b1-4)[Fuc(a1-3)]GlcNAc
Outline: as §1

[18] = target: Gal(b1-3)GlcNAc(b1-3)Gal(b1-4)[Fuc(a1-3)]GlcNAc(b1-6)[Gal(b1-3)GlcNAc(b1-3)]Gal(b1-4)Glc
Outline: as §1

[19] = target: Gal(b1-3)GlcNAc(b1-3)GalNAc
Outline: as §1

[20] = target: Gal(b1-3)GlcNAc(b1-6)Gal(b1-4)GlcNAc
Outline: as §1

[21] = target: Gal(b1-3)GlcNAc(b1-6)GalNAc
Outline: as §1

B1: Clone646PsrP (Streptococcus pneumoniae) (protein)
chain: MDHHHHHHHHASENLYFQGAPAINASLNIAKSETKVYTGEGVDSVYRVPIYYKLKVTNDGSKLTFTYTVTYVNPKTNDLGNISSMRPGYSIYNSGTSTQTMLTLGSDLGKPSGVKNYITDKNGRQVLSYNTSTMTTQGSGYTWGNGAQMNGFFAKKGYGLTSSWTVPITGTDTSFTFTPYAARTDRIGINYFNGGGKVVESSTTSQSLSQSKSLSVSAS
glycan array binding signal (z-score) [1]: 0.86
glycan array binding signal (z-score) [2]: 1.3
glycan array binding signal (z-score) [3]: 0.573
glycan array binding signal (z-score) (Gal(b1-3)GlcNAc): 0.245
glycan array binding signal (z-score) [4]: -0.863
glycan array binding signal (z-score) [5]: 0.248
glycan array binding signal (z-score) (Gal(b1-3)GlcNAc(b1-2)Man): 0.106
glycan array binding signal (z-score) [6]: -0.535
glycan array binding signal (z-score) [7]: -0.421
glycan array binding signal (z-score) [8]: 1.06
glycan array binding signal (z-score) [9]: 9.03
glycan array binding signal (z-score) [10]: -0.113
glycan array binding signal (z-score) [11]: -0.565
glycan array binding signal (z-score) [12]: -0.659
glycan array binding signal (z-score) [13]: -0.547
glycan array binding signal (z-score) [14]: -0.74
glycan array binding signal (z-score) [15]: -0.193
glycan array binding signal (z-score) [16]: -0.795
glycan array binding signal (z-score) [17]: -0.276
glycan array binding signal (z-score) [18]: -0.749
glycan array binding signal (z-score) [19]: -0.43
glycan array binding signal (z-score) [20]: -0.402
glycan array binding signal (z-score) [21]: -1.06
